Data: publication PMC6650080, “A novel Ca2+-binding protein that can rapidly transduce auxin responses during root growth” (PLoS Biology, 2019)
No constants are given. Whether binding was seen depends on the method and setting. Sequences can lack the tags named with a protein.

Target: nonfused GST
Assay: pull-down; GST-ICR1 (1.2 μg) or GST (0.4 μg) on Glutathione sepharose, His6-CMI1 0.5 μg; 20 mM Tris-HCl pH 7.5, 5 mM CaCl2, 0.1 mg/mL BSA, 200 mM NaCl, 1% Triton X-100, RT; wash with 1 M NaCl; blot with anti-poly-His; both purified

binding: no binding
B1: His6-CMI1 (natural protein, Arabidopsis, UniProt O81831 1-130, looked up)
chain: MASPKSPTRPTQQNPQPNFHDFLPTMAGNLGGEGLIGELCNGFELLMDREKGVITFESLRRNAAAVLGLGDLTDEDVRCMIKEGDFDCDGALNQMEFCVLMFRLSPDLMEASRCLVTEVIEEEFGFTRRH
notes: CMI1, Arabidopsis, At4g27280; also called His-CMI1; source: E. coli Rosetta (DE3), purified (Ni-NTA)
